# Laboratory results taken from publication PMC12448072.
# By UniProt entry, the sequences of proteins in these tests, tags left out. Where a name states a change or a piece, a line headed by the entry shows the natural chain unless it says otherwise.
# UniProt F4JX49: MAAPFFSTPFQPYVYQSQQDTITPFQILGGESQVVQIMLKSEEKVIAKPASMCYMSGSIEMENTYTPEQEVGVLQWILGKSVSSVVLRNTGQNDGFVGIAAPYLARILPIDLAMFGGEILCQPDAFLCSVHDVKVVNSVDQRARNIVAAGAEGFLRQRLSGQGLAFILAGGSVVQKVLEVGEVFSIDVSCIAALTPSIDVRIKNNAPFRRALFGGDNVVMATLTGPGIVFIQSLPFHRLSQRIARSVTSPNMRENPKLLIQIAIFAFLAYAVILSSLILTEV
# Results are given in words; binding and its absence hold for the method and conditions named. Binding seen in cells or lysates may run through a third protein. Here binding means that the protein was enriched with, or labelled near, the bait; the list need not be complete. For part of these data: Tags and fused reporters may be left off the sequences shown.
# T1: GFP-PILS3 (PIN-LIKES 3, GFP-tagged) (A. thaliana) (UniProt Q9C9K5)
# T1 sequence: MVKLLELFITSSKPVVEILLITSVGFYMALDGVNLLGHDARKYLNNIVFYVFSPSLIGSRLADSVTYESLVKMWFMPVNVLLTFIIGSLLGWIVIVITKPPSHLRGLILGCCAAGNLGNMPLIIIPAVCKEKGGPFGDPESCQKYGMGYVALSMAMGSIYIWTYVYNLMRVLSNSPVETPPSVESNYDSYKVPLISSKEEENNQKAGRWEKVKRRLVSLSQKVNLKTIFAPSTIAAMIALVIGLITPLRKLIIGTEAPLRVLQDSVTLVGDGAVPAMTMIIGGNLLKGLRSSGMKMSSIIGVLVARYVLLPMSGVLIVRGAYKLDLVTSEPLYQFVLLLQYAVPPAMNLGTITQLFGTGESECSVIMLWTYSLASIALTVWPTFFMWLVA
# T2: PILS6-GFP (PIN-LIKES 6, GFP-tagged) (A. thaliana) (UniProt Q9LZN2)
# T2 sequence: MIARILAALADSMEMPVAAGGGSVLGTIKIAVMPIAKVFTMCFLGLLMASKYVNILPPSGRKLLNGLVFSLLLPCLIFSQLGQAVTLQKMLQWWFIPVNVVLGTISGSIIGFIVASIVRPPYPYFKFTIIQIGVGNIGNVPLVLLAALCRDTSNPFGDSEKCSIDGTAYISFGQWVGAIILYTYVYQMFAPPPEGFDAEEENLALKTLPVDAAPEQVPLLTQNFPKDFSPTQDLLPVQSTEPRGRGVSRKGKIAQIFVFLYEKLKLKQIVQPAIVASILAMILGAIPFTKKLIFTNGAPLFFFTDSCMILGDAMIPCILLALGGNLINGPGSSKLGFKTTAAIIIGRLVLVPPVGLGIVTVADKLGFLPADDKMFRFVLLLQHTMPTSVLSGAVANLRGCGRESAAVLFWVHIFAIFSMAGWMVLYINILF
# T3: GFP-PILS2 (PIN-LIKES 2, GFP-tagged) (A. thaliana) (UniProt Q9C999)
# T3 sequence: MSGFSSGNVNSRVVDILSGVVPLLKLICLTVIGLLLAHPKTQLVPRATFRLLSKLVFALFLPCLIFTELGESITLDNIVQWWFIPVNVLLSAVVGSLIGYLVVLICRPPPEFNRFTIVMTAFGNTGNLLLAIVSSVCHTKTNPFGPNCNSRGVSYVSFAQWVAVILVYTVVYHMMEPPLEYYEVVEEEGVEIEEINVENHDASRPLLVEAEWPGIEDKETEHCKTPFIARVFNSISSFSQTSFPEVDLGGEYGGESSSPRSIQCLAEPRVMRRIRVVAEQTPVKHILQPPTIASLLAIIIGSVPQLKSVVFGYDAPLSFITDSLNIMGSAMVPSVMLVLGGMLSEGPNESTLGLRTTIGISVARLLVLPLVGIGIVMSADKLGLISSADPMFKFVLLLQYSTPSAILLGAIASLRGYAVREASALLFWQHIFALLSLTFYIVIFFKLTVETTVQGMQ
# B1: HMG-CoA Reductase Degradation 1A (HRD1A) (protein, UniProt Q9LW77 1-492)
# chain: MIRLRTYAGLSFMATLAVIYHAFSSRGQFYPATVYLSTSKISLVLLLNMCLVLMLSLWHLVKFVFLGSLREAEVERLNEQAWRELMEILFAITIFRQDFSSGFLPLVVTLLLIKALHWLAQKRVEYIETTPSVSKLSHFRIVSFMGFLLLVDSLFMYSSIRHLIQSRQASVSLFFSFEYMILATTTVAIFVKYVFYVTDMLMDGQWEKKPVYTFYLELIRDLLHLSMYICFFFVIFMNYGVPLHLLRELYETFRNFQIRVSDYLRYRKITSNMNDRFPDATPEELTASDATCIICREEMTNAKKLICGHLFHVHCLRSWLERQQTCPTCRALVVPPENATSAAPGQRELHQGSQQGTSSSGNQGSEISSSAGVSNNSLSRHHARLQAAASAASVYGKSMVYPSANTVAWSSGVPGTEQVSTEPDQTLPQHNLPVENSHAYANMSETKLEEMRKSLETHLEILRNRLHFLETRKPESAGEPENKGKSVADAAE
# B2: native PILS5 (protein, UniProt Q9SHL8 1-396)
# chain: MGFWSLLEVASMPVIQVLFMSLVGAFMASDRCKLFPVEARNSMNKVVFVLFAPALMFANLAQTVTLEDIISWWFMPVNMGLTFLIGGLLGWLVVKILKPPPYLEGLIVATCSAGNMGNLPIILVPAICDEDKSPFGNRSVCRTVGLSYASFSMALGGFYIWTYTFRLIKGSAMKVQAIEESEKIAIKSSNSDLEADHKTHLLGAPEDKENKVVKEKTGFWRKGVDFLHEILEELLAPPTLGAIIGFIFGAVRWLRNLIIGDDAPLRIVQSTAKLLGDGTIPCMTIILGGNLIQGLRSSAVKPMVVLGIVCVRYIAMPIIGIGIVLTAANLGFLPADPLFQYVLMLQFTLPPAMNIGTMTQLYNVAQDECSVLMLWTYLVAILALTVWSTIFLHLLV
# B3: DER2.1 (protein, UniProt Q8VZ96 1-244)
# chain: MAQAVEEWYKQMPIITRSYLTAAVVTTVGCSLEIISPYNLYLNPTLVVKQYQFWRLVTNFLYFRKMDLDFLFHMFFLARYCKLLEENSFRGKTADFLYMLLFGATVLTGIVLIGGMIPYLSVSFSKIIFLSNSLTFMMVYVWSKQNPYIHMSFLGLFTFTAAYLPWVLLGFSILVGASAWGDFLGMIAGHAYYFLAFVYPRMTDRRPLKTPSFLKALFADEPVVIARPEDVRFAHAPFDEIHQD
# B4: DER2.2 (protein, UniProt Q9ZS88 1-244)
# chain: MAQAVEEWYKQMPIITRSYLTAAVITTVGCSLDIISPYNLYLNPTLVVKQYQYWRLVTNFLYFRKMDLDFMFHMFFLARYCKLLEENSFRGKTADFLYMLLFGASVLTGIVLIGGMIPYLSASFAKIIFLSNSLTFMMVYVWSKQNPYIHMSFLGLFTFTAAYLPWVLLGFSILVGASAWVDLLGMIAGHAYYFLAEVYPRMTNRRPLKTPSFLKALFADEPVVVARPEDVRFAAAPFDEIHQD
# Key:
# [1] = biological target: T1, GFP-PILS3 (PIN-LIKES 3, GFP-tagged) (A. thaliana); assay: affinity purification with mass spectrometry; anti-GFP beads on extracts of A. thaliana lines expressing GFP-PILS2, GFP-PILS3 or PILS6-GFP as baits; extraction buffer 25 mM Tris pH 7.5, 10 mM MgCl2, 15 mM EGTA, 75 mM NaCl, 1 mM DTT, 0.1% Tween 20; screen performed twice
# [2] = biological target: T2, PILS6-GFP (PIN-LIKES 6, GFP-tagged) (A. thaliana); assay: as above
# [3] = biological target: T3, GFP-PILS2 (PIN-LIKES 2, GFP-tagged) (A. thaliana); assay: as above
# [4] = biological target: HRD1 (endogenous HRD1A/B, as recognised by the HRD1 antibody) (A. thaliana (endogenous in A. thaliana)); assay: affinity purification with mass spectrometry; co-IP with anti-HRD1 antibodies on wild-type Arabidopsis lysates, label-free quantitative mass spectrometry; mock IPs (beads without antibody) as background
Molecule,binding [1],binding [2],binding [3],binding [4]
PAWH2 (from UniProt F4JX49),binds,binds,binds,
Protein Associated with HRD1-1 (PAWH1) (A. thaliana (endogenous in A. thaliana)),binds,binds,binds,
B1,binds,binds,binds,
B2,,,,binds
B3,,,,binds
B4,,,,binds
